The text below walks through data of publication PMC13139468, “A model for drug transport across two membranes of Gram-negative bacteria by an MFS tripartite assembly” (Nature Communications, 2026).

Results are given in words; binding and its absence hold for the method and conditions named. Tags and fused reporters may be left off the sequences shown.

In the experiment the target is EmrB (modified EmrB, the BRIL-EmrB-ALFA part of the EmrB-EmrA fusion protein) (E. coli K-12 strain MG1655) (UniProt P0AEJ0). Put plainly: cryo-EM structure; EmrAB-TolC pump-EA (EmrB-EmrA fusion protein, modified free EmrA, TolC-FLAG), co-expressed and purified as a complex, in peptidisc, 0.7 mg/mL, holey carbon grids; single-particle cryo-EM, 300 kV; maps at 3.13 Å and 3.14 Å; both purified.

B1: EmrB (modified EmrB, the BRIL-EmrB-ALFA part of the EmrB-EmrA fusion protein) (protein, UniProt P0AEJ0 13-498)
chain: VIMTIALSLATFMQVLDSTIANVAIPTIAGNLGSSLSQGTWVITSFGVANAISIPLTGWLAKRVGEVKLFLWSTIAFAIASWACGVSSSLNMLIFFRVIQGIVAGPLIPLSQSLLLNNYPPAKRSIALALWSMTVIVAPICGPILGGYISDNYHWGWIFFINVPIGVAVVLMTLQTLRGRETRTERRRIDAVGLALLVIGIGSLQIMLDRGKELDWFSSQEIIILTVVAVVAICFLIVWELTDDNPIVDLSLFKSRNFTIGCLCISLAYMLYFGAIVLLPQLLQEVYGYTATWAGLASAPVGIIPVILSPIIGRFAHKLDMRRLVTFSFIMYAVCFYWRAYTFEPGMDFGASAWPQFIQGFAVACFFMPLTTITLSGLPPERLAAASSLSNFTRTLAGSIGTSITTTMWTNRESMHHAQLTESVNPFNPNAQAMYSQLEGLGMTQQQASGWIAQQITNQGLIISANEIFWMSAGIFLVLLGLVWFA
Regarding B1, the binding entry is on record as “no binding”.
